Drawing on the supplement of paper PMC8326762, “A Small Molecule Inhibitor of Pex3–Pex19 Interaction Disrupts Glycosome Biogenesis and Causes Lethality in Trypanosoma brucei” (Frontiers in Cell and Developmental Biology, 2021), this text covers general growth inhibition and growth inhibition for 39 compounds.

Where a name gives a salt, the structure may show the parent alone. The list shows a part of the results. The data scatter; read single values as rough.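 Yeast growth was measured as optical density at 600 nm. Two-hybrid strains grew without histidine, so growth depended on Pex3–Pex19 binding. A compound was trypanosome-selective if it reduced growth of the trypanosome-pair strain by over 65% and of the human-pair strain by under 65%.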

The first assay has as its system Saccharomyces cerevisiae HF7c pdr5Δ. Put plainly: general growth inhibition of yeast HF7c pdr5Δ in -Leu -Trp medium, relative to DMSO; higher = stronger general growth inhibition. The following applies: 100 µM; 24 h.
On to `CC(C)(C)NCC(O)COc1cccc2[nH]c(=O)[nH]c12` (racemic), for which the general growth inhibition was 35.2%.
`O=C(c1cc(O)c(O)c([N+](=O)[O-])c1)c1ccccc1F`: the general growth inhibition was determined as 63.8%.
Take `CSc1nc(N)c2ncn([C@@H]3O[C@H](COP(=O)(O)OP(=O)(O)OP(=O)(O)O)[C@H](O)C3O)c2n1` (stereo partly drawn) [2-Methylthioadenosine triphosphate tetrasodium]: the general growth inhibition amounted to 24%.
Still for that read-out and setting: the value for `CN(C)CCCN1c2ccccc2CCc2ccc(Cl)cc21` [Clomipramine hydrochloride] was 18%; that for `CCCCCCCCc1ccc(-c2ccc(C(=O)O)cc2)cc1` was 49%; that for `Cc1cc(C)c(/C=C2\C(=O)Nc3ccccc32)[nH]1` was 46.2%.
Same read-out and setting: under `CC(=Cc1ccc(C(=O)O)cc1)c1ccc2c(c1)C(C)(C)CCC2(C)C` stands 45%; under `Cn1cc(C(=O)OCC2CCN(CCNS(C)(=O)=O)CC2)c2ccccc21`, 35%; under `NC/C=C/C(=O)O` [(E)-4-amino-2-butenoic acid], 53.8%.
On the same count and under the same terms, under `NCC(O)c1ccc(O)c(O)c1` (racemic) [(±)-Norepinephrine (+)bitartrate] stands 50.9%; under `Cc1nc2c(OCc3ccccc3)cccn2c1CC#N`, 44.5%; under `Nc1ccn([C@@H]2O[C@H](CO)[C@@H](O)[C@@H]2O)c(=O)n1` [Cytosine-1-beta-D-arabinofuranoside hydrochloride], 6.59%.
`N=C(N)N/N=C/c1c(Cl)cccc1Cl` [Guanabenz acetate]: the general growth inhibition stood at 25.1%.
Still for that read-out and setting: under `Cn1c(=O)c2[nH]c(-c3ccc(S(=O)(=O)O)cc3)nc2n(C)c1=O` [8-(p-Sulfophenyl)theophylline] stands 87.6%; under `NC[C@@H](O)c1ccc(O)c(O)c1` [L(-)-Norepinephrine bitartrate], 42.2%; under `O=C1CN(/N=C/c2ccc(-c3ccc([N+](=O)[O-])cc3)o2)C(=O)N1` [Dantrolene sodium], 22.8%.
On the same count and under the same terms, the value for `NC(=O)c1cn(Cc2c(F)cccc2F)nn1` [Rufinamide] was 32.4%.
The same measure, in the same setting: the value for `CC(=O)NNC(=O)N1Cc2ccccc2Oc2ccc(Cl)cc21` was 48.6%; that for `CC(C)(C=O)Cc1cc(C(C)(C)C)c(O)c(C(C)(C)C)c1` was 59.8%.
For the compound `CN[C@H](CC(=O)O)C(=O)O` [N-Methyl-D-aspartic acid], the general growth inhibition is 45.5%.
In turn, `NCC(O)C1CCCCCCC1` (stereo not drawn) [2-Cyclooctyl-2-hydroxyethylamine hydrochloride] returned a general growth inhibition of 27.9%.
In turn, `Nc1nccc2c1ncn2[C@@H]1O[C@H](CO)[C@@H](O)[C@H]1O` [3-deazaadenosine] came in with a general growth inhibition of 34%.
The same measure, in the same setting: under `COc1ccc2cccc(CCNC(C)=O)c2c1` [Agomelatine] stands 21.3%; under `O=P(O)(O)C(O)(Cn1ccnc1)P(=O)(O)O` [Zoledronic acid monohydrate], 52%; under `Nc1ccn([C@@H]2O[C@H](CO)[C@@H](O)C2(F)F)c(=O)n1` [Gemcitabine hydrochloride], 45%.
As to `O=C1Nc2ccc(I)cc2/C1=C/c1cc(Br)c(O)c(Br)c1`, the general growth inhibition worked out at 20.3%.
In turn, `CCC(=O)c1ccc2c(c1)N(CCCN(C)C)c1ccccc1S2` [Propionylpromazine hydrochloride] returned a general growth inhibition of 39.7%.
On the same count and under the same terms, under `c1ccc(C2CN3CCSC3=N2)cc1` (stereo not drawn) [Tetramisole hydrochloride] stands 9.35%.
Same read-out and setting: under `CC(C)(C)c1ccc(C(O)CCCN2CCC(C(O)(c3ccccc3)c3ccccc3)CC2)cc1` (stereo not drawn) [Terfenadine] stands 70.8%; under `O=C(CCNNC(=O)c1ccncc1)NCc1ccccc1` [Nialamide], 47.4%; under `CCCCCCNC(=O)n1cc(F)c(=O)[nH]c1=O` [Carmofur], 76%.
In the case of `CCCc1nn(C)c2c(=O)[nH]c(-c3cc(S(=O)(=O)N4CCN(C)CC4)ccc3OCC)nc12` [Sildenafil citrate salt], the general growth inhibition turned out to be 44.4%.
The same measure, in the same setting: under `CC(=O)[C@@]1(O)CC[C@H]2[C@@H]3CCC4=CC(=O)CC[C@]4(C)[C@H]3CC[C@@]21C` [17alpha-hydroxyprogesterone] stands 42.6%; under `CC(=O)SCC[N+](C)(C)C` [Acetylthiocholine chloride], 48.6%.
In turn, `O=c1cc(-c2ccc(O)cc2)oc2cc(O)cc(O)c12` [Apigenin] had a general growth inhibition of 39.2%.
`CCCCCCCCCCC(C)(C)C(=O)Nc1c(OC)cc(OC)cc1OC` showed a general growth inhibition of 47.3%.
For the compound `C#C[C@]1(O)CC[C@H]2[C@@H]3CCC4=Cc5oncc5C[C@]4(C)[C@H]3CC[C@@]21C` [Danazol], the general growth inhibition was 26%.
Same read-out and setting: the value for `COC(=O)C1=C(C)NC(C)=C(C(=O)OC)C1c1cccc(NC(=O)NCCCN2CCC(c3cccc(OC)c3)CC2)c1` was 39.7%.
On the same count and under the same terms, the value for `C[C@]12CC[C@@H]3c4ccc(O)cc4CC[C@H]3[C@@H]1CCC2=O` [Estrone] was 34.1%.

Another assay deals with human PEX3-PEX19 interaction (yeast two-hybrid). Put plainly: growth inhibition of yeast two-hybrid strain reporting HsPex3-HsPex19 interaction, relative to DMSO; higher = stronger inhibition of human Pex3-Pex19 interaction / growth. The following applies: 100 µM; 24 h; 3-aminotriazole 10 mM.
Take `CC(C)(C)NCC(O)COc1cccc2[nH]c(=O)[nH]c12` (racemic): the growth inhibition worked out at 43.8%.
The same measure, in the same setting: under `O=C(c1cc(O)c(O)c([N+](=O)[O-])c1)c1ccccc1F` stands 56.8%.
On the same count and under the same terms, the value for `CSc1nc(N)c2ncn([C@@H]3O[C@H](COP(=O)(O)OP(=O)(O)OP(=O)(O)O)[C@H](O)C3O)c2n1` (stereo partly drawn) [2-Methylthioadenosine triphosphate tetrasodium] was 24.8%; that for `CN(C)CCCN1c2ccccc2CCc2ccc(Cl)cc21` [Clomipramine hydrochloride] was 29.1%.
With `CCCCCCCCc1ccc(-c2ccc(C(=O)O)cc2)cc1`, the growth inhibition was determined as 28.3%.
On the same count and under the same terms, under `Cc1cc(C)c(/C=C2\C(=O)Nc3ccccc32)[nH]1` stands 26.8%.
As to `CC(=Cc1ccc(C(=O)O)cc1)c1ccc2c(c1)C(C)(C)CCC2(C)C`, the growth inhibition was 39.7%.
In the case of `Cn1cc(C(=O)OCC2CCN(CCNS(C)(=O)=O)CC2)c2ccccc21`, the growth inhibition worked out at 35.7%.
`NC/C=C/C(=O)O` [(E)-4-amino-2-butenoic acid]: the growth inhibition came to 49.7%.
For `NCC(O)c1ccc(O)c(O)c1` (racemic) [(±)-Norepinephrine (+)bitartrate], the growth inhibition was 41.1%.
`Cc1nc2c(OCc3ccccc3)cccn2c1CC#N`: the growth inhibition was determined as 38.7%.
In the case of `Nc1ccn([C@@H]2O[C@H](CO)[C@@H](O)[C@@H]2O)c(=O)n1` [Cytosine-1-beta-D-arabinofuranoside hydrochloride], the growth inhibition is -0.874%.
On to `N=C(N)N/N=C/c1c(Cl)cccc1Cl` [Guanabenz acetate], for which the growth inhibition stood at 33.5%.
Still for that read-out and setting: the value for `Cn1c(=O)c2[nH]c(-c3ccc(S(=O)(=O)O)cc3)nc2n(C)c1=O` [8-(p-Sulfophenyl)theophylline] was 79%.
`NC[C@@H](O)c1ccc(O)c(O)c1` [L(-)-Norepinephrine bitartrate]: the growth inhibition turned out to be 34.3%.
For the compound `O=C1CN(/N=C/c2ccc(-c3ccc([N+](=O)[O-])cc3)o2)C(=O)N1` [Dantrolene sodium], the growth inhibition came to 27.7%.
On the same count and under the same terms, under `NC(=O)c1cn(Cc2c(F)cccc2F)nn1` [Rufinamide] stands 39.2%.
The same measure, in the same setting: the value for `CC(=O)NNC(=O)N1Cc2ccccc2Oc2ccc(Cl)cc21` was 46.1%; that for `CC(C)(C=O)Cc1cc(C(C)(C)C)c(O)c(C(C)(C)C)c1` was 38%.
The same measure, in the same setting: under `CN[C@H](CC(=O)O)C(=O)O` [N-Methyl-D-aspartic acid] stands 47.1%; under `NCC(O)C1CCCCCCC1` (stereo not drawn) [2-Cyclooctyl-2-hydroxyethylamine hydrochloride], 36.8%.
Take `Nc1nccc2c1ncn2[C@@H]1O[C@H](CO)[C@@H](O)[C@H]1O` [3-deazaadenosine]: the growth inhibition worked out at 35.7%.
Take `COc1ccc2cccc(CCNC(C)=O)c2c1` [Agomelatine]: the growth inhibition is 14.8%.
Still for that read-out and setting: the value for `O=P(O)(O)C(O)(Cn1ccnc1)P(=O)(O)O` [Zoledronic acid monohydrate] was 48.5%; that for `Nc1ccn([C@@H]2O[C@H](CO)[C@@H](O)C2(F)F)c(=O)n1` [Gemcitabine hydrochloride] was 46.1%.
Turning to `O=C1Nc2ccc(I)cc2/C1=C/c1cc(Br)c(O)c(Br)c1`, the growth inhibition is 9.37%.
On to `CCC(=O)c1ccc2c(c1)N(CCCN(C)C)c1ccccc1S2` [Propionylpromazine hydrochloride], for which the growth inhibition is 19.7%.
On the same count and under the same terms, under `c1ccc(C2CN3CCSC3=N2)cc1` (stereo not drawn) [Tetramisole hydrochloride] stands 13.3%; under `CC(C)(C)c1ccc(C(O)CCCN2CCC(C(O)(c3ccccc3)c3ccccc3)CC2)cc1` (stereo not drawn) [Terfenadine], 76%.
On to `O=C(CCNNC(=O)c1ccncc1)NCc1ccccc1` [Nialamide], for which the growth inhibition was found to be 53.6%.
Consider `CCCCCCNC(=O)n1cc(F)c(=O)[nH]c1=O` [Carmofur], for which the growth inhibition is 53.8%.
The same measure, in the same setting: the value for `CCCc1nn(C)c2c(=O)[nH]c(-c3cc(S(=O)(=O)N4CCN(C)CC4)ccc3OCC)nc12` [Sildenafil citrate salt] was 41.5%.
For `CC(=O)[C@@]1(O)CC[C@H]2[C@@H]3CCC4=CC(=O)CC[C@]4(C)[C@H]3CC[C@@]21C` [17alpha-hydroxyprogesterone], the growth inhibition came out at 32.6%.
Still for that read-out and setting: under `CC(=O)SCC[N+](C)(C)C` [Acetylthiocholine chloride] stands 50.4%; under `O=c1cc(-c2ccc(O)cc2)oc2cc(O)cc(O)c12` [Apigenin], 28%.
On the same count and under the same terms, the value for `CCCCCCCCCCC(C)(C)C(=O)Nc1c(OC)cc(OC)cc1OC` was 37.7%.
In the case of `C#C[C@]1(O)CC[C@H]2[C@@H]3CCC4=Cc5oncc5C[C@]4(C)[C@H]3CC[C@@]21C` [Danazol], the growth inhibition was 26.9%.
Still for that read-out and setting: the value for `COC(=O)C1=C(C)NC(C)=C(C(=O)OC)C1c1cccc(NC(=O)NCCCN2CCC(c3cccc(OC)c3)CC2)c1` was 31.1%; that for `C[C@]12CC[C@@H]3c4ccc(O)cc4CC[C@H]3[C@@H]1CCC2=O` [Estrone] was 32.1%.
